Reference: PubChem BioAssay AID1487 (National Center for Advancing Translational Sciences (NCATS), 2009)
The list shows a part of the results. The main result of the screen is listed elsewhere. These columns were measured beside it and carry no call. The list favours compounds with an active or inconclusive main result. Words in brackets tell the shape of the fitted curve; partial curves, single points and poor fits give uncertain potencies.

Assay: qHTS Assay for Modulators of Lamin A Splicing
Settings: HeLa LMNA splicing GFP/RFP minigene ratio, 48 h
Outline: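 Read-out is the ratio of GFP to DsRed2 object intensity, acquired by 488 nm laser-scanning cytometry on HeLa lamin A-EGFP minigene reporter cells. Compound incubation 48 hrs at 37 °C in Opti-MEM with 2% FBS; DMSO 0.5% final.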

[1] = measured here: RFP viability control channel
[2] = measured here: GFP splicing reporter channel

Compound	AC50 [1]	AC50 [2]
CCOc1ccc(Br)cc1S(=O)(=O)Nc1ccc(N2CCOCC2)cc1	12.6 µM [rising, single point]	
COc1cc(NS(C)(=O)=O)ccc1Cc1c2ccccc2nc2ccccc12	0.158 µM [rising, full curve]	0.0794 µM [falling, full curve, poor fit]
Cc1[nH]c2ccccc2c1C(=O)/C=C/c1ccccc1		17.8 µM [falling, partial curve, poor fit]
O=S(=O)(c1cccs1)N1CCN(Cc2nc3ccccc3s2)CC1	25.1 µM [rising, single point]	
CCOC(=O)c1ccc(Oc2cc(C)nc(SC)n2)cc1	7.08 µM [rising, full curve]	
COCc1nnc(NC(C)=O)s1		0.112 µM [rising, partial curve, poor fit]
COc1cc(NC(=O)c2ccc(OC)c([N+](=O)[O-])c2)ccc1NC(=O)c1cccs1	0.0708 µM [rising, full curve, poor fit]	
Cc1nc(-c2ccc(C)c(N3CCN(C(=O)Nc4cccc(Cl)c4C)CC3)c2)no1	22.4 µM [falling, partial curve, poor fit]	28.2 µM [falling, partial curve]
O=C(Cn1c(NCCO)nc2ccccc21)NCCc1ccc(F)cc1	2 µM [falling, partial curve]	15.8 µM [falling, single point]
CCOC(=O)c1cnc(-n2nc(C)cc2C)nc1NC1CCCCC1	3.55 µM [rising, full curve]	
Cc1ccc(-c2nc(N)n(C(=O)c3cccs3)n2)cc1	4.47 µM [falling, full curve, poor fit]	
COc1ccc(Cl)cc1NC(=S)NNC(=O)C1(C)CC1(Cl)Cl (configuration not stated)	1 µM [falling, full curve, poor fit]	
CC1(C)c2ssc(=S)c2-c2ccccc2N1C(=O)c1ccco1		35.5 µM [rising, single point]
COCCCN(C(=S)Nc1cc(Cl)cc(Cl)c1)C(C)c1ccncc1 (configuration not stated)	14.1 µM [rising, single point]	
Cc1nc(N2CCC(C)CC2)c2oc3ccccc3c2n1		14.1 µM [rising, single point]
CC1=C(C(=O)N2CCCCC2)C(c2cccs2)NC(=O)N1 (configuration not stated)		20 µM [rising, single point]
COc1cc(/C=C2\SC(=O)NC2=O)ccc1Oc1ccc([N+](=O)[O-])cc1[N+](=O)[O-]		11.2 µM [falling, partial curve, poor fit]
O=[N+]([O-])c1ccc(NC(=S)NCCc2ccc(Cl)cc2)cc1	14.1 µM [rising, single point]	12.6 µM [rising, single point]
CCCCNC(C(=O)Nc1ccc(Cl)c([N+](=O)[O-])c1)c1ccccc1 (configuration not stated)	10 µM [rising, partial curve, poor fit]	

10 of these compounds, set out differently:
Compound,AC50 [1],AC50 [2]
CCOc1ccc(Br)cc1S(=O)(=O)Nc1ccc(N2CCOCC2)cc1,"12.6 µM [rising, single point]",
Cc1[nH]c2ccccc2c1C(=O)/C=C/c1ccccc1,,"17.8 µM [falling, partial curve, poor fit]"
COCc1nnc(NC(C)=O)s1,,"0.112 µM [rising, partial curve, poor fit]"
COc1cc(NC(=O)c2ccc(OC)c([N+](=O)[O-])c2)ccc1NC(=O)c1cccs1,"0.0708 µM [rising, full curve, poor fit]",
O=C(Cn1c(NCCO)nc2ccccc21)NCCc1ccc(F)cc1,"2 µM [falling, partial curve]","15.8 µM [falling, single point]"
COc1ccc(Cl)cc1NC(=S)NNC(=O)C1(C)CC1(Cl)Cl (configuration not stated),"1 µM [falling, full curve, poor fit]",
CC1(C)c2ssc(=S)c2-c2ccccc2N1C(=O)c1ccco1,,"35.5 µM [rising, single point]"
CC1=C(C(=O)N2CCCCC2)C(c2cccs2)NC(=O)N1 (configuration not stated),,"20 µM [rising, single point]"
O=[N+]([O-])c1ccc(NC(=S)NCCc2ccc(Cl)cc2)cc1,"14.1 µM [rising, single point]","12.6 µM [rising, single point]"
CCCCNC(C(=O)Nc1ccc(Cl)c([N+](=O)[O-])c1)c1ccccc1 (configuration not stated),"10 µM [rising, partial curve, poor fit]",

(more compounds)

Compound	AC50 [1]	AC50 [2]
COc1ccc(Nc2sc(C(=O)c3ccc(Cl)cc3)c(N)c2C(=O)Nc2ccccc2OC)cc1	25.1 µM [rising, single point]	22.4 µM [rising, single point]
Cc1nnsc1SCCNC(=O)Nc1ccc(Cl)cc1	35.5 µM [rising, single point]	
COc1ccc(-c2cc(=O)c3c(O)cc(O)cc3o2)cc1	14.1 µM [falling, single point]	12.6 µM [falling, single point]
Clc1ccccc1Cn1c(/C=C/c2ccco2)nc2ccccc21	14.1 µM [falling, partial curve]	
O=C(CSc1nc(-c2ccccc2)c(-c2ccccc2)[nH]1)NCCN1C(=O)CSC1=O	22.4 µM [rising, single point]	
CCOc1ccccc1C(=O)N1CCN(C(c2ccccc2)c2ccccc2)CC1	12.6 µM [rising, single point]	0.794 µM [falling, partial curve]
O=C(Nc1ccccc1)C1=C(c2ccccc2)S(=O)(=O)CCS1(=O)=O	2.51 µM [rising, partial curve]	
OC[C@H]1O[C@@H](n2cnc3c(Nc4ccccc4)ncnc32)[C@H](O)[C@H]1O	20 µM [rising, single point]	15.8 µM [rising, single point]
CC(C)(C)OC(=O)N1CCC[C@H]1c1nnc(SCc2ccc(Cl)cc2Cl)o1	12.6 µM [rising, partial curve]	11.2 µM [rising, partial curve]
CCOC(=O)c1sc(NC(=O)c2cc(-c3ccccc3C)nc3ccccc23)c(C#N)c1C	15.8 µM [rising, single point]	
O=C1CCCN1c1ccc(S(=O)(=O)N2CCC(c3ccccc3)CC2)cc1	2.82 µM [rising, full curve]	2.51 µM [rising, single point]
C=CCc1cccc(/C=N/NC(=O)CNc2cccc3ccccc23)c1O	25.1 µM [rising, single point]	
Cc1ccc(-c2nc3ncccc3o2)cc1NC(=O)c1cccs1	0.00316 µM [falling, full curve, poor fit]	0.00501 µM [falling, full curve, poor fit]
CC(C)(C)OC(=O)NNC(=S)NC1CCCCC1		35.5 µM [falling, partial curve, poor fit]
OCCN(CCO)c1ncnc2c1cnn2-c1ccc(F)cc1	0.00316 µM [falling, full curve, poor fit]	0.00316 µM [falling, full curve]
O=C(Nc1ccc([N+](=O)[O-])cc1)Nc1ccc(OC(F)F)c(Cl)c1	12.6 µM [rising, partial curve]	2.24 µM [rising, single point]
COc1ccccc1N1CCN(C(=O)c2ccc(S(=O)(=O)N3CCCCCC3)cc2)CC1	10 µM [rising, single point]	
COCCSc1nnc(NC(=O)c2ccc3c(c2)OCO3)s1		5.62 µM [falling, partial curve, poor fit]
Cc1csc2nc(COC(=O)c3ccccc3NC(=O)c3ccc(C(C)(C)C)cc3)cc(=O)n12	2.82 µM [falling, single point]	35.5 µM [falling, single point]

Compound	AC50 [1]	AC50 [2]
O=C(CCCn1c(=O)c2cccn2c2ccccc21)NCCc1ccc(Cl)cc1		15.8 µM [falling, partial curve, poor fit]
Cc1sc(NC(=O)c2cc(-c3ccc(Cl)cc3)nc3ccccc23)c(C(N)=O)c1C	10 µM [falling, partial curve]	11.2 µM [falling, partial curve]
COc1ccc(-c2csc(NC(=O)c3ccc(OCC(=O)N4CCOCC4)c(OC)c3)n2)cc1OC	0.794 µM [rising, full curve, poor fit]	35.5 µM [falling, single point]
CCC(C)Cn1c(C)nc2ccccc21 (configuration not stated)	12.6 µM [rising, partial curve]	17.8 µM [rising, partial curve]
Cc1nc(C)c(-c2csc(N)n2)s1	11.2 µM [falling, single point]	
C/C(N)=C(/C#N)C(=O)CSc1nnc(Nc2c(C)cccc2C)s1	0.00447 µM [falling, full curve, poor fit]	
Cc1nc(N)c(Br)c(C)c1Br	0.00891 µM [falling, full curve, poor fit]	
COc1cc(CNC2CCCCCCC2)cc(Br)c1OCC#N	11.2 µM [rising, partial curve]	14.1 µM [rising, single point]
Cc1nc2ccc(NC(=O)c3cc(S(=O)(=O)N4CCOCC4)ccc3C)cc2s1	20 µM [rising, single point]	
O=C(COC(=O)CNC(=O)c1cccc([N+](=O)[O-])c1)Nc1ccccc1OC(F)F	0.0708 µM [falling, full curve, poor fit]	
O=C(O)C(=O)/C(=C\c1cccc(Cl)c1)c1ccc2ccccc2n1	0.0794 µM [falling, full curve, poor fit]	
Cc1cc(C)cc(NC(=O)CSc2nc3[nH]ncc3c(=O)[nH]2)c1	11.2 µM [rising, partial curve, poor fit]	
Cn1c(-c2cccc3ccccc23)n[nH]c1=S		31.6 µM [falling, single point]
CN1C(=O)C(N=Nc2ccccc2C(=O)O)N(C)C1=S (configuration not stated)	35.5 µM [rising, single point]	22.4 µM [rising, partial curve, poor fit]
O=[N+]([O-])c1ccc(NC(=S)N2CCc3ccccc3C2)cc1	22.4 µM [rising, partial curve]	12.6 µM [rising, partial curve]
O=C(NCc1ccccc1F)c1ccc(CSc2nc3cccnc3n2Cc2ccccc2)cc1		35.5 µM [falling, partial curve, poor fit]
CCCC(=O)Nc1ccc(C(=O)N/N=C/c2ccc([N+](=O)[O-])o2)cc1	6.31 µM [rising, partial curve]	35.5 µM [rising, single point]
CCCN(Cc1cc2cc(C)ccc2[nH]c1=O)C(=O)c1cccc(OC)c1	11.2 µM [rising, partial curve, poor fit]	
